In all, about 33,000 sequences were measured (“E-score (-0.5 to 0.5)”: median about -0.0034, highest 2% from about 0.25 on). This is one part of the list.

The target of this test is T1, Yap3 (UniProt P38749).
T1 sequence: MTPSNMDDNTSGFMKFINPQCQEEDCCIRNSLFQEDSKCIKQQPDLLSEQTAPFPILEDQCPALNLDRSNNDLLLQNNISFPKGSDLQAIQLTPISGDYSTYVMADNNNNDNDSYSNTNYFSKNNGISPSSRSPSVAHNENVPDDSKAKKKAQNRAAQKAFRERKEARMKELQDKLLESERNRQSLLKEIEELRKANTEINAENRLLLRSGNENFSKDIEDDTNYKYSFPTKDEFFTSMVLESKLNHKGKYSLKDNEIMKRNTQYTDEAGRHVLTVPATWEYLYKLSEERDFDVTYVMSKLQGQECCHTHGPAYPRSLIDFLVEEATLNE
Briefly: PBM E-score (8-mer binding enrichment) (E-score (-0.5 to 0.5)); higher = stronger / more preferred TF binding. The note with it: protein concentration: 100 nM; construct: GST-full length. As to the method:
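Universal 'all 10-mer' protein binding microarrays (Agilent AMADID 015681) probed with GST-tagged S. cerevisiae TFs (full-length or DBD) made by in vitro transcription/translation (PURExpress), about 100-200 nM. Bound TF was detected with fluorescent anti-GST. Each ungapped 8-mer (which stands for itself and its reverse complement) is scored by the PBM enrichment score (E-score), a modified Wilcoxon-Mann-Whitney statistic from -0.5 to +0.5, computed with the Universal PBM Analysis Suite. Scale: above 0.35 generally sequence-specific binding.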
With AACGGCTT, the “PBM E-score” value is -0.133.
Take CAGATGAG: the “PBM E-score” value is 0.0576.
Consider TACGGCTA, for which the “PBM E-score” value was -0.0482.
As for AGCCTTCC, the “PBM E-score” value was -0.312.
Under ATCGGTTC stands -0.161.
For the sequence CCGATCAC, the “PBM E-score” value is 0.0564.
Regarding CTAGGGCC, the “PBM E-score” value is -0.128.
As to GTTCGTCA, the “PBM E-score” value is -0.186.
As to AGCCCTGC, the “PBM E-score” value was -0.26.
As for AGGGCCAT, the “PBM E-score” value is -0.195.
For the sequence CGTGGGGA, the “PBM E-score” value is -0.12.
For TAAACCGA, the “PBM E-score” value turned out to be 0.00348.
Take CAGACGCG: the “PBM E-score” value is -0.185.
As for CAGGCCAC, the “PBM E-score” value was -0.161.
Take AGTAGATG: the “PBM E-score” value came to 0.0925.
As for CGGGCCCG, the “PBM E-score” value was 0.0296.
With CCGCTAAG, the “PBM E-score” value is -0.0432.
Under AGCTCCGA stands -0.125.
Take AGCTTGGC: the “PBM E-score” value was -0.207.
ACTCATTG: the “PBM E-score” value is -0.0888.
For the sequence AGCACGCG, the “PBM E-score” value is -0.0483.
With ACCGGGAA the figure was 0.0397; with CTATTCAA, 0.101.
As for AGGGGTAC, the “PBM E-score” value was -0.126.
With GTGACACA, the “PBM E-score” value turned out to be 0.126.
For GGGAGTAA, the “PBM E-score” value was 0.126.
On to GACTGTAA, for which the “PBM E-score” value was 0.126.
With GGAGCCCA the figure was -0.272.
For AGAGCTGG, the “PBM E-score” value is -0.137.
In the case of GGGGCCAA, the “PBM E-score” value was -0.185.
Under GTAGTTAA stands 0.142.
With ACTTAGGA, the “PBM E-score” value is -0.122.
Consider GCCTTTGA, for which the “PBM E-score” value was found to be 0.118.
GATGCGGC: the “PBM E-score” value was -0.218.
Under AGTTTAAC stands 0.0248; under CGAGACTA, 0.165.
On to CGCTTGGC, for which the “PBM E-score” value was -0.178.
As for CCGGAGTC, the “PBM E-score” value is -0.248.
In the case of CGGACCTC, the “PBM E-score” value was -0.21.
For GCTATAGA, the “PBM E-score” value was -0.0488.
Take CACCCCTA: the “PBM E-score” value was -0.0124.
For the sequence CTGCCTGC, the “PBM E-score” value was -0.21.
With AGTAGACC the figure was -0.0544; with GTAGCCCA, -0.175.
For AGCCTGGC, the “PBM E-score” value is -0.138.
For CGGAACGC, the “PBM E-score” value was -0.00515.
On to GCAGGGGA, for which the “PBM E-score” value is -0.293.
On to AATCTCTA, for which the “PBM E-score” value turned out to be 0.249.
Turning to CGTTGCAA, the “PBM E-score” value came to 0.0264.
Consider ATACCCTA, for which the “PBM E-score” value stood at 0.0498.
As to CAAGCTCG, the “PBM E-score” value is -0.0584.
Consider ATAAACGC, for which the “PBM E-score” value stood at 0.0151.
Under CCGTTGGC stands -0.0505; under CTGTATCC, 0.172.
With GCTAAGAC, the “PBM E-score” value was -0.0702.
Regarding CAATATGA, the “PBM E-score” value was 0.174.
In the case of CACCGCCG, the “PBM E-score” value was -0.164.
As for AAGTTATC, the “PBM E-score” value was found to be 0.0646.
For the sequence CTCGAGAG, the “PBM E-score” value was -0.00076.
Consider GGATAACC, for which the “PBM E-score” value is -0.154.
As for CCTACTCA, the “PBM E-score” value was -0.0277.
With CGTTTCCC, the “PBM E-score” value was -0.0188.
Take AATGTACC: the “PBM E-score” value is -0.0973.
Turning to TGAACTAA, the “PBM E-score” value came to 0.0069.
As for GAGGCCCA, the “PBM E-score” value was -0.264.
With AGCCCCTA the figure was -0.224; with AAAGACAG, 0.25; with CCCAGTAG, 0.0549.
Turning to GGCATAAA, the “PBM E-score” value stood at 0.14.
With GTAGGAGA, the “PBM E-score” value is -0.137.
Under AGAGGGCG stands -0.103; under GACCTGAC, -0.0718; under ACAGTGAA, 0.0171.
With AAGCGGAG the figure was -0.144; with CCCATCTC, -0.00094.
As to CGCGACAG, the “PBM E-score” value is -0.127.
Consider CGCACAGA, for which the “PBM E-score” value was -0.0531.
Under CTCCGTAA stands -0.0605; under TACCGCAA, 0.169; under CCTCTGAG, -0.208.
Under CCCCCAAA stands -0.268; under AGAAACGA, 0.189; under ATGCCCCG, -0.108.
With ACATCCCC, the “PBM E-score” value was -0.133.
Under ACACGTTG stands -0.237.
With GAGATCGC the figure was -0.0166.

For the origin of these results see the supplement of paper PMC3334620.
